No constants are given. Whether binding was seen depends on the method and setting. For part of these data: Binding seen in cells or lysates may run through a third protein. Some results given as binding are weak or reduced against the parent protein; the word gives no strength. Tags and fused reporters may be left off the sequences shown.
T1: RAPTOR1B, full-length cDNA in pDEST32 (DBD fusion) for the targeted Y2H (Arabidopsis) (UniProt Q93YQ1)
T1 sequence: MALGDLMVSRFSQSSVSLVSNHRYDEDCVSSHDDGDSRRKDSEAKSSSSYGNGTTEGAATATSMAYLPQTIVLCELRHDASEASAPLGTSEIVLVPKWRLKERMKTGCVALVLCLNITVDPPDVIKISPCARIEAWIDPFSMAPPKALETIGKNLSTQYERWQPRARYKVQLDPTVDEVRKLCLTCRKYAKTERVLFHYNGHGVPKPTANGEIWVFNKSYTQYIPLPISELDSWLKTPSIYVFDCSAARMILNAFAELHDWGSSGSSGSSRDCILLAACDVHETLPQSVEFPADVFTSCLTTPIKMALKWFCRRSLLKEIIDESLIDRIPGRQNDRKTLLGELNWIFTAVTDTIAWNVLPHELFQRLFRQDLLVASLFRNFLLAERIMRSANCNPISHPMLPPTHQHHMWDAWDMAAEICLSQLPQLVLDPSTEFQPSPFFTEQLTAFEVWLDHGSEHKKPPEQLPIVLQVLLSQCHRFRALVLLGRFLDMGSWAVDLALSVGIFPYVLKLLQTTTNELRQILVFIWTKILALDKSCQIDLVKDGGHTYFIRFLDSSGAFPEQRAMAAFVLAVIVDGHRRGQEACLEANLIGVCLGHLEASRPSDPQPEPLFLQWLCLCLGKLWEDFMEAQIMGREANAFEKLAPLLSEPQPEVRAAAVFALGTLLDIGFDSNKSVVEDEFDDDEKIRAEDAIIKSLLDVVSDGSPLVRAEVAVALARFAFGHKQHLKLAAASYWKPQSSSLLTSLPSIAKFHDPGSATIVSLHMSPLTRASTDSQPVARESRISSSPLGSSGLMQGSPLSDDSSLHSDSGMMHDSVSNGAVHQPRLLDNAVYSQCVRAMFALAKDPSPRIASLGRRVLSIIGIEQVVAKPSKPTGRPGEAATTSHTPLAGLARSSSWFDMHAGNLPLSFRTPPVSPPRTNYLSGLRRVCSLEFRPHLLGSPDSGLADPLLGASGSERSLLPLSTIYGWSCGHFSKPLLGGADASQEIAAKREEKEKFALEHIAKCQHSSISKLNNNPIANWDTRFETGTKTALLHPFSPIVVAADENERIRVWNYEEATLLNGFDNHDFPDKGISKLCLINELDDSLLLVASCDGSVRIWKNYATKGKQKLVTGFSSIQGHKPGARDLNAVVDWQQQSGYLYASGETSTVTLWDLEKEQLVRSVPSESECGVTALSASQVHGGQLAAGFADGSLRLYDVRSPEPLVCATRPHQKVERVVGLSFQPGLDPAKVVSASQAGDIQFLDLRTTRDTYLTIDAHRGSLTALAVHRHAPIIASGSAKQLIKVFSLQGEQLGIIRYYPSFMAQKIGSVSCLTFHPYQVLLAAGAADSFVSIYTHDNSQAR

T2: RAPTOR1B-6xMyc (Arabidopsis) (UniProt Q93YQ1)
T2 sequence: T1 sequence

T3: FLZ14-3xHA (Arabidopsis) (UniProt Q8GYX2)
T3 sequence: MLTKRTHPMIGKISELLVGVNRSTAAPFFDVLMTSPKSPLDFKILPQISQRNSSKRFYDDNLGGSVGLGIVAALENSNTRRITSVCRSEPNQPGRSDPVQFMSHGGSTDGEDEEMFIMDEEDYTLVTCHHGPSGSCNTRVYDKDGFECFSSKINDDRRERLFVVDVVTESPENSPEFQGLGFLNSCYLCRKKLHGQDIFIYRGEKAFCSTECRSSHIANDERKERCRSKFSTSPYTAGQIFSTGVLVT

T4: nYFP-RAPTOR1B (Arabidopsis) (UniProt Q93YQ1)
T4 sequence: T1 sequence

B1: FLZ14, full-length cDNA in pDEST22 (AD fusion) for the targeted Y2H (protein, UniProt Q8GYX2 1-248)
chain: T3 sequence
B2: FLZ14-3xHA (protein, UniProt Q8GYX2 1-248)
chain: T3 sequence
B3: RAPTOR1B-6xMyc (protein, UniProt Q93YQ1 1-1344)
chain: T1 sequence
B4: cYFP-FLZ14 (protein, UniProt Q8GYX2 1-248)
chain: T3 sequence
B5: FLZ14-cYFP (protein, UniProt Q8GYX2 1-248)
chain: T3 sequence
B6: FLZ6-cYFP (protein, UniProt Q9SGZ8 1-162)
chain: MLLGKRQRPPINRTTSLSEIKFDLNLPSESEPSNQQKPTVASPYGSNGQAVTAAVDQNRGFLDQRLLSMVTPRGNLRRHSGDFSDAGHFLRSCALCERLLVPGRDIYMYRGDKAFCSSECRQEQMAQDERKEKGKSAAPAKEPAVTAPARAKPGKGRAAAAV

Legend:
[1] = biological target: T1, RAPTOR1B, full-length cDNA in pDEST32 (DBD fusion) for the targeted Y2H (Arabidopsis); assay: two-hybrid
[2] = biological target: T2, RAPTOR1B-6xMyc (Arabidopsis); assay: co-IP
FLZ14-3xHA (Arabidopsis) = biological target: T3, FLZ14-3xHA (Arabidopsis); assay: co-IP
[3] = biological target: T4, nYFP-RAPTOR1B (Arabidopsis); assay: split reporter

Binder | binding [3] | also measured
B1 |  | binding [1]: binds
B2 |  | binding [2]: binds
B3 |  | binding (FLZ14-3xHA (Arabidopsis)): binds
B4 | binds | 
B5 | binds | 
B6 | no binding | 

Reference: doi:10.1101/2023.08.14.553285
